According to patent publication US20110281804A1, “PEPTIDIC AND PEPTIDOMIMETIC COMPOUNDS FOR REGULATING AUTOPHAGY” (FONDAZIONE SANTA LUCIA, priority 2008, published 2011):
No constants are given. Whether binding was seen depends on the method and setting. For part of these data: In cells and extracts the contact can be indirect. Some binding calls cover weakened binding; strength is not graded here.

Protein sequences, listed by entry. Tags and fused reporters are not part of them. Lines headed by an entry give the natural chain unless they say otherwise; changes in a name come on top. Chains listed by the source or under a name are the forms on record and can include a tag or linker.
AMBRA1 full length (human, wild type) (Q9C0C7, form named): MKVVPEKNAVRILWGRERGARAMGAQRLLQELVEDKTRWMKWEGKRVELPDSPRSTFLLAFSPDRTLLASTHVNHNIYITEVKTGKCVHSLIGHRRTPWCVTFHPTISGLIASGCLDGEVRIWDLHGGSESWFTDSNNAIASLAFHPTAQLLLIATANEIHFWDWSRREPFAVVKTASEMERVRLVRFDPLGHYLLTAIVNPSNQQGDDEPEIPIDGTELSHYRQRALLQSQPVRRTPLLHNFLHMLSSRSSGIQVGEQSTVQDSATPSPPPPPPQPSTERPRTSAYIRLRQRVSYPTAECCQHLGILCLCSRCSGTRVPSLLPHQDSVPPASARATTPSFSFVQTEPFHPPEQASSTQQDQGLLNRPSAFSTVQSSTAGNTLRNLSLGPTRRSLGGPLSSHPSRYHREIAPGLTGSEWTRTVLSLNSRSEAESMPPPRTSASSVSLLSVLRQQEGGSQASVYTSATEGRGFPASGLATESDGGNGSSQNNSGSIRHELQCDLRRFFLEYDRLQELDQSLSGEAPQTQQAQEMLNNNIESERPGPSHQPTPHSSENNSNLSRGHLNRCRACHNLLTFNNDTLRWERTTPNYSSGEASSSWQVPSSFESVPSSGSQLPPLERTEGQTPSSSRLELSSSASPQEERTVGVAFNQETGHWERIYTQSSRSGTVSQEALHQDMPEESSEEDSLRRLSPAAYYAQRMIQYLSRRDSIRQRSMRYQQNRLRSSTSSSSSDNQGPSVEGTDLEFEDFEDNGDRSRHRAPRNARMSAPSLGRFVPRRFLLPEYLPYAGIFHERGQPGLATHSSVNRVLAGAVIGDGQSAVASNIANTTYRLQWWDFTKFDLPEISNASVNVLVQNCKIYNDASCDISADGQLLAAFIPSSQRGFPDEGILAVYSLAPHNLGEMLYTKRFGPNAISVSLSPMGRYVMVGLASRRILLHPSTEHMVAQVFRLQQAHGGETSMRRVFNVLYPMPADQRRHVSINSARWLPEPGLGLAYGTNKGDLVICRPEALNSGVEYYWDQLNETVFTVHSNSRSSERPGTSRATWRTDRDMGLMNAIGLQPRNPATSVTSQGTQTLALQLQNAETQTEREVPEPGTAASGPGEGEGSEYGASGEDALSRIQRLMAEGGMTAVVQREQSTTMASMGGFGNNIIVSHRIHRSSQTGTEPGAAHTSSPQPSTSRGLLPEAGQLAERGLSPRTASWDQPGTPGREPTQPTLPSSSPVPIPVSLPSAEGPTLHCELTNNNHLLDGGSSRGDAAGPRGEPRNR
UniProt Q14457: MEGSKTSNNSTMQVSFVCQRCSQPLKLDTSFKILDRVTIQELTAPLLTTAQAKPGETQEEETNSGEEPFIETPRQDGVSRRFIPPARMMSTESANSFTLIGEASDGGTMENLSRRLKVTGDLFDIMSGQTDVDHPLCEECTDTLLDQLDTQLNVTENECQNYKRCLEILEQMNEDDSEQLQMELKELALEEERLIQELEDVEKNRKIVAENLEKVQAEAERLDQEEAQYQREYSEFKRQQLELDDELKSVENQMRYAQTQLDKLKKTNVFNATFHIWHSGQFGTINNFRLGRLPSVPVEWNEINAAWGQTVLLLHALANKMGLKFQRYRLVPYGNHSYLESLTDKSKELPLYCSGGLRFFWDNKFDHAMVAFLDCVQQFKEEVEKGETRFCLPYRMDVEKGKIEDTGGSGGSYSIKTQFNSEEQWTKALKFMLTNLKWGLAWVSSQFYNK
UniProt P63168: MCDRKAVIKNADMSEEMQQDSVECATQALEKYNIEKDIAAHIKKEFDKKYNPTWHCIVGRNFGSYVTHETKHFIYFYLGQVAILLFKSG

Columns and labels:
[1] = target: AMBRA1 full length (human, wild type) (UniProt Q9C0C7); experiment: co-immunoprecipitation (IP FLAG-BECLIN 1, WB AMBRA1) from 2F cells
[2] = target: T1, Ambra1 (mouse, endogenous) (mouse) (UniProt A2AH22); experiment: legend of FIG. 1b: IP Ambra1, WB Dlc1, E14.5 embryos
T1 sequence (looked up): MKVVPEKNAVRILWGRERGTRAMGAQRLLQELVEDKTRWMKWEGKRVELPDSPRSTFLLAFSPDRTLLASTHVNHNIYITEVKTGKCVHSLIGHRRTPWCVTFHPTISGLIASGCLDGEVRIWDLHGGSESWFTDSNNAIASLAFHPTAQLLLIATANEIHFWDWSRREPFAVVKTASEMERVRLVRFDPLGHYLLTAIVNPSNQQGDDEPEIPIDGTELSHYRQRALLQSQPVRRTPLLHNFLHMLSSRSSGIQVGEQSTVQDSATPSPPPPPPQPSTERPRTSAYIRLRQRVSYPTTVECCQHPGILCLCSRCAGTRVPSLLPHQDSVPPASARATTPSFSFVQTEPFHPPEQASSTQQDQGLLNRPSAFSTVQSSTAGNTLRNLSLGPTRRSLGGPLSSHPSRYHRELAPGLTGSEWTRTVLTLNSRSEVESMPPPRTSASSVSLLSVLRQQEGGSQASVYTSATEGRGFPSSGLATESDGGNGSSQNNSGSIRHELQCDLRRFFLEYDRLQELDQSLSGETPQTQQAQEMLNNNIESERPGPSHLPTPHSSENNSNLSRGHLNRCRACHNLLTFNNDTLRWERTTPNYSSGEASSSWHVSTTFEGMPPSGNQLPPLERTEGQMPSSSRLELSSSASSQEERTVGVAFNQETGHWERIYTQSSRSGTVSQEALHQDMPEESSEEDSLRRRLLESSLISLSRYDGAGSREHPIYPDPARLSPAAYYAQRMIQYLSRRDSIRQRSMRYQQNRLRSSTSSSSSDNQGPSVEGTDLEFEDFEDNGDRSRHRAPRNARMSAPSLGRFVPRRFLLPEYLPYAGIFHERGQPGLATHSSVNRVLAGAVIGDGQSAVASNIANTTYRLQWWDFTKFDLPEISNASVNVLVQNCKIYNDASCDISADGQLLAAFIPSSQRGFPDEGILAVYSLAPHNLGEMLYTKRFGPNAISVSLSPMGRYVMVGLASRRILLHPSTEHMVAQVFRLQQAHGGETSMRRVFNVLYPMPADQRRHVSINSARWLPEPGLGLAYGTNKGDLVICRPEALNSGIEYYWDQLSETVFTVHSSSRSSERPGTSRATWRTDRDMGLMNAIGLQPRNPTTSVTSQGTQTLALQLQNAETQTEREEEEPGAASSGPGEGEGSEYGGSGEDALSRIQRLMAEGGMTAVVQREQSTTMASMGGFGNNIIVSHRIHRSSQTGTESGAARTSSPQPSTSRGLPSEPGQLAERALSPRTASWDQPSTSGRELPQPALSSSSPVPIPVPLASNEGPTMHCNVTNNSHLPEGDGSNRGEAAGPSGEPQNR

[3] = target: T1, Ambra1 (mouse, endogenous) (mouse); experiment: co-immunoprecipitation (IP Ambra1, WB Dlc1) from mouse E14.5 embryo extracts

Substance	binding [1]	binding [2]	binding [3]
BECLIN 1 (from UniProt Q14457 1-450)	binds	–	–
Dlc1 (mouse, endogenous) (from UniProt P63168 1-89)	–	binds	binds
